{"source": "patent EP3045469A1", "about": "(priority 2015, dated 2016)", "assay": "peptide synthesis", "conditions": "whole synthesis, sulfate", "note": "Strings that start with PEPTIDE1 are HELM notation: dots part the residues, brackets hold end groups and non-standard residues.", "data": [{"substance": "PEPTIDE1{[OA].[Dab].T.[dT].[Dab].[Dab].[dF].L.[Abu].[Dab].T}$PEPTIDE1,PEPTIDE1,5:R3-11:R2$$$V2.0", "values": [{"measurement": "final HPLC purity", "setting": "run 1", "value": 98.8, "unit": "%"}, {"measurement": "final HPLC purity", "setting": "run 2", "value": 98.4, "unit": "%"}]}, {"substance": "PEPTIDE1{[OA].T.[dS].[Dab].[Dab].[dF].L.[Dab].[Dab].T}$PEPTIDE1,PEPTIDE1,4:R3-10:R2$$$V2.0", "values": [{"measurement": "final HPLC purity", "value": 97.3, "unit": "%"}]}]}
